Laboratory results published in article PMC5996148.
The list shows a part of the results. For some of these results: The source does not settle which construct or isoform was used.

Experiments:
Experiment in all cases: protein microarray (ProtoArray v5.0), streptavidin-Alexa Fluor 647
Conditions in all cases: 3'-biotin; 20 mM Tris (pH 7.5), 5 mM MgCl2, 100 mM KCl, 0.1% Tween-20, A/T-rich and random oligonucleotide blockers; temperature not stated; high values mean tight binding
SSPN (human) = test system: SSPN (human)
STAP1 = target: T1, STAP1 (UniProt Q9ULZ2)
T1 sequence: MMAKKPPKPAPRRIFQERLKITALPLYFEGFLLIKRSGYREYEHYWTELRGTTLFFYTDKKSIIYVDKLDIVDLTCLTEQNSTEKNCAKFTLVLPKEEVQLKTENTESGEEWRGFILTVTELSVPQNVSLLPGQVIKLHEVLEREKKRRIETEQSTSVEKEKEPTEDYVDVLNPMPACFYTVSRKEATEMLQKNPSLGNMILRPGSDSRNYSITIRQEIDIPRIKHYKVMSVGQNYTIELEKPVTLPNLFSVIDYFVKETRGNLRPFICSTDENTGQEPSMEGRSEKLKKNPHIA

STARD7 (human) = test system: STARD7 (human)
STCH (human) = test system: STCH (human)
STEAP4 (human) = test system: STEAP4 (human)
STK16 (human) = test system: STK16 (human)
STK40 (human) = test system: STK40 (human)
STOML2 (human) = test system: STOML2 (human)
STRA13 (human) = test system: STRA13 (human)
STX18 (human) = test system: STX18 (human)

For “GGGGACAGGGGTATGGGGAGGGG [G4-3 biotinylated (CtG)]”, the binding signal (SSPN (human)) was -0.321 z-score, the binding signal (STAP1) was 6.03 z-score and the binding signal (STARD7 (human)) was -0.339 z-score. The binding signal (STCH (human)) was -0.327 z-score, the binding signal (STEAP4 (human)) was -0.318 z-score and the binding signal (STK16 (human)) was -0.322 z-score. It also gave a binding signal (STK40 (human)) of -0.32 z-score, a binding signal (STOML2 (human)) of -0.313 z-score and a binding signal (STRA13 (human)) of -0.309 z-score. It also gave a binding signal (STX18 (human)) of -0.327 z-score.
